No constants are given. Whether binding was seen depends on the method and setting. Binding seen in cells or lysates may run through a third protein. Binding can be weak; no strength is given. Tags and fused reporters may be left off the sequences shown.
Molecular target: Cleaved N-terminal fragment of DFNA5 tagged with internal Flag (human)
Test: co-IP

B1: CHMP4B tagged with V5 (protein, UniProt Q9H444 1-224)
chain: MSVFGKLFGAGGGKAGKGGPTPQEAIQRLRDTEEMLSKKQEFLEKKIEQELTAAKKHGTKNKRAALQALKRKKRYEKQLAQIDGTLSTIEFQREALENANTNTEVLKNMGYAAKAMKAAHDNMDIDKVDELMQDIADQQELAEEISTAISKPVGFGEEFDEDELMAELEELEQEELDKNLLEISGPETVPLPNVPSIALPSKPAKKKEEEDDDMKELENWAGSM
binding: binds

— article doi:10.1101/2021.04.27.441709
